Test results taken from patent US20250282834A1, “PEPTIDE INHIBITORS FOR CHROMODOMAIN HELICASE DNA BINDING PROTEIN 4 (CHD4)” (THE REGENTS OF THE UNIVERSITY OF CALIFORNIA, priority 2022, published 2025).
No constants are given. Whether binding was seen depends on the method and setting. In cells and extracts the contact can be indirect. Some results given as binding are weak or reduced against the parent protein; the word gives no strength.

Chains of the proteins cited; added tags and fusions are not shown.
UniProt Q14839: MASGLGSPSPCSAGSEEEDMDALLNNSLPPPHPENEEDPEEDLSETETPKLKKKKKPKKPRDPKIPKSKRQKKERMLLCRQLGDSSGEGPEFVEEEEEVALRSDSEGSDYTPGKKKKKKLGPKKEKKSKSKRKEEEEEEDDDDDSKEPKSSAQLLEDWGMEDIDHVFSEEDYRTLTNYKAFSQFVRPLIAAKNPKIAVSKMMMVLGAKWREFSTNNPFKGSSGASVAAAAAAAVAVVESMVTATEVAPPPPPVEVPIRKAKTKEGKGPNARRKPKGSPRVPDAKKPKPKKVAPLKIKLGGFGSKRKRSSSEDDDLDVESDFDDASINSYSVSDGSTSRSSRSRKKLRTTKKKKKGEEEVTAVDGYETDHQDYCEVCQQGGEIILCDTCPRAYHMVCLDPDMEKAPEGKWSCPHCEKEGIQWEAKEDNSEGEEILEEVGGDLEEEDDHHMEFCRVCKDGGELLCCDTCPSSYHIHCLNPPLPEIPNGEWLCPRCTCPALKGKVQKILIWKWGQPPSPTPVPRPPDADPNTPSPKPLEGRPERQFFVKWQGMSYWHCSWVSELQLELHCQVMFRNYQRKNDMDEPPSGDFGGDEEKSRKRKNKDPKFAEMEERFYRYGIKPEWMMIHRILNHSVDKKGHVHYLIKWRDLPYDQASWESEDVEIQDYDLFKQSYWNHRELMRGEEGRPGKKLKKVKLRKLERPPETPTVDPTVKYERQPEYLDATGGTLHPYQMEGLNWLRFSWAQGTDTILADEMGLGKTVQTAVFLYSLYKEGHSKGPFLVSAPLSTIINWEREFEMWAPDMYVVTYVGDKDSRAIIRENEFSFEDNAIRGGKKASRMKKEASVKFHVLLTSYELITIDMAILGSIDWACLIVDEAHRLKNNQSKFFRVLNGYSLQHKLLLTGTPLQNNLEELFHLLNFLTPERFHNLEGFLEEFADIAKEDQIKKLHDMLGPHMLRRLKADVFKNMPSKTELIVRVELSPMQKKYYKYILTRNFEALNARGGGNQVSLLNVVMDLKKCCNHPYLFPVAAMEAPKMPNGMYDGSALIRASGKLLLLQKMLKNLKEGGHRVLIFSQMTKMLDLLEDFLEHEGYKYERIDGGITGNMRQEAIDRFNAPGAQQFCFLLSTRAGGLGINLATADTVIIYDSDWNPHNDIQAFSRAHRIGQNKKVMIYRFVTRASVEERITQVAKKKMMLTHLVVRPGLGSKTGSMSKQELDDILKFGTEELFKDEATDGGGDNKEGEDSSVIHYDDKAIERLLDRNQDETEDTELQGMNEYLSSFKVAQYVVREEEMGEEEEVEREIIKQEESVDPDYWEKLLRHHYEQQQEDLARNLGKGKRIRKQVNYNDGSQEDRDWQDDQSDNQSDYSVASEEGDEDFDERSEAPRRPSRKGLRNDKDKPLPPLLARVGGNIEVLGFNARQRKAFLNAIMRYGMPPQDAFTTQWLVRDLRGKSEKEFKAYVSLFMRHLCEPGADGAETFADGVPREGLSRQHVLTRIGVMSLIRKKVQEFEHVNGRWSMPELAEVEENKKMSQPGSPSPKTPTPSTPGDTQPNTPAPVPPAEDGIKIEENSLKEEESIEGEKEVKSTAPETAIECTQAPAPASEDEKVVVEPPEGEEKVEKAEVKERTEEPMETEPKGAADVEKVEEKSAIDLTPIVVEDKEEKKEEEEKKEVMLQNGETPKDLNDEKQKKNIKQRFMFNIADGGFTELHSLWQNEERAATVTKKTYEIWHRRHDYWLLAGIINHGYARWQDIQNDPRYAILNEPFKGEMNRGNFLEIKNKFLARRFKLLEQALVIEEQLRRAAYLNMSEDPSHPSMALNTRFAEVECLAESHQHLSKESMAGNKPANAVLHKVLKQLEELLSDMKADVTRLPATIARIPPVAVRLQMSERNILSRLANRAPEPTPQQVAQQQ
UniProt Q9QR71: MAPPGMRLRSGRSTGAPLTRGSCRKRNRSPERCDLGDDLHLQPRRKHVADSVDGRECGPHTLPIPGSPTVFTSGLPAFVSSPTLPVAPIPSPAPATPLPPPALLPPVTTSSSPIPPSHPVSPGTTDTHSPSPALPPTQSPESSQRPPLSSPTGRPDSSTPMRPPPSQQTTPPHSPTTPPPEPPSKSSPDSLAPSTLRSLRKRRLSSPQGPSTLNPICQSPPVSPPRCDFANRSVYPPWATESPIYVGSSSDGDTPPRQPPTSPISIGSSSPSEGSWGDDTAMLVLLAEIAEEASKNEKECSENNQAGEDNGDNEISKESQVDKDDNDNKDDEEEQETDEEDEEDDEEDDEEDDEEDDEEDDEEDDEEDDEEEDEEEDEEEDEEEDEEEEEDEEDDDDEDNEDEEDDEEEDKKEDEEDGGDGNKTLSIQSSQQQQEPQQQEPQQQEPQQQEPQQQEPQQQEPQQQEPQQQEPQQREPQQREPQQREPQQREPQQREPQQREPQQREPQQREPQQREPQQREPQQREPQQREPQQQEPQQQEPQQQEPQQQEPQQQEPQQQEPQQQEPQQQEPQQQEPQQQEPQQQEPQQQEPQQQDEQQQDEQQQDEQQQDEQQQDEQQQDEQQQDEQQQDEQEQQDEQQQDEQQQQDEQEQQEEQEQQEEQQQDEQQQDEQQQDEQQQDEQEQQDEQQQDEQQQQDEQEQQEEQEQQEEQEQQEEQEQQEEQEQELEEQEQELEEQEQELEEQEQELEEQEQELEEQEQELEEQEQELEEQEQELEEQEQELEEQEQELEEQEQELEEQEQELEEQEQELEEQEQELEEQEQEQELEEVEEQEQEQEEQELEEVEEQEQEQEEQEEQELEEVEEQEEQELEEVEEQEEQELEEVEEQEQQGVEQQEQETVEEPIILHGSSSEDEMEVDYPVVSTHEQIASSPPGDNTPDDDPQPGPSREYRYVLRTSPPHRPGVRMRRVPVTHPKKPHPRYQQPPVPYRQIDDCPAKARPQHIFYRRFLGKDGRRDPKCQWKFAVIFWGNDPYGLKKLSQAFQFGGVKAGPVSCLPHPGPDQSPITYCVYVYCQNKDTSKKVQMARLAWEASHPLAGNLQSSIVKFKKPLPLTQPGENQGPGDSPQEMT

Legend:
[1] = biological target: full-length Flag-CHD4 (chromodomain helicase DNA-binding protein 4) (UniProt Q14839); assay: co-precipitation of purified Flag-LANA (200 nM) and Flag-CHD4 (200 nM) with anti-LANA antibody, with or without VGN73 or mutant peptide, immunoblot
[2] = biological target: full-length Flag-CHD4 (chromodomain helicase DNA-binding protein 4) (UniProt Q14839); assay: co-immunoprecipitation with anti-LANA antibody, 200 nM Flag-CHD4 and 200 nM Flag-LANA, with or without VGN73 or mutant peptide (1 or 10 µM), anti-CHD4 and anti-LANA immunoblot

Flag-LANA (KSHV latency-associated nuclear antigen), full length (from UniProt Q9QR71 1-1129)
binding [1]: binds
binding [2]: binds
